At least one peptide structure holds a part that was inferred or is arguable (an end, a ring closure or a residue). Some results were stated once for a whole list of compounds, not compound by compound. Where no end group is shown, it is not given here.
Tested on: diabetic C57BL/KsJ@Rj-db (db/db) mice
Experiment: Dose-efficacy study in diabetic mice
Type: in vivo, mouse
Conditions: for fall in plasma glucose @1 h: 1 hour after single s.c. injection of 1.1-3.0 nmol peptide; for fall in plasma glucose @1 h / fall in plasma glucose @4 h: versus control; for fall in plasma glucose @4 h: 4 hours after single s.c. injection of 1.1-3.0 nmol peptide; for plasma glucose ED50 / in vivo bioactivity versus GLP-1, deduced from the ED50 values: single s.c. dose; for plasma glucose ED50: percentage decrease of blood glucose at 1h
Method: A sixth group was treated with saline only. 7 animals were treated per group. Blood glucose was determined from tail bleeds directly before, 1 hour and 4 hours after injection.
The results are shown in dose-response curves according to FIG. 8 (FIG. 8A (GLP-1), FIG. 8B (CM1), FIG. 8C(CM3) and FIG. 8D (CM3-ANA01)). For every test substance a graph was prepared with the percentage difference of the blood glucose in relation to the start value for the different concentrations. […] Both models are sigmoidal fit models suitable for dose response evaluation. For every peptide the plasma glucose ED50 values (single s.c. dose in μg/mouse) have been determined from the percentage decrease of blood glucose.
The fall in plasma glucose and the corresponding significance levels are given for the time period 1 hour (@1 h) and 4 hours (@4h) after peptide injection. Differences have been observed in the long-term efficacy of the peptides.

Molecule	fall in plasma glucose @1 h	fall in plasma glucose @4 h	plasma glucose ED50	in vivo bioactivity versus GLP-1, deduced from the ED50 values	decrease of the blood glucose levels after 4 hours (long-term efficacy) (4 hours after single s.c. injection)
CC[C@H](C)[C@H](NC(=O)[C@H](Cc1ccccc1)NC(=O)[C@H](CCC(=O)O)NC(=O)[C@H](CCCCN)NC(=O)[C@H](C)NC(=O)[C@H](C)NC(=O)[C@H](CCC(N)=O)NC(=O)CNC(=O)[C@H](CCC(=O)O)NC(=O)[C@H](CC(C)C)NC(=O)[C@H](Cc1ccc(O)cc1)NC(=O)[C@H](CO)NC(=O)[C@H](CO)NC(=O)[C@@H](NC(=O)[C@H](CC(=O)O)NC(=O)[C@H](CO)NC(=O)[C@@H](NC(=O)[C@H](Cc1ccccc1)NC(=O)[C@@H](NC(=O)CNC(=O)[C@H](CCC(=O)O)NC(=O)[C@H](C)NC(=O)[C@@H](N)Cc1c[nH]cn1)[C@@H](C)O)[C@@H](C)O)C(C)C)C(=O)N[C@@H](C)C(=O)N[C@@H](Cc1c[nH]c2ccccc12)C(=O)N[C@@H](CC(C)C)C(=O)N[C@H](C(=O)N[C@@H](CCCCN)C(=O)NCC(=O)N[C@@H](CCCNC(=N)N)C(=O)NCC(=O)O)C(C)C [GLP-1(7-37), reference compound]	15% ± 24% @1 h	0% @4 h	12.76 μg/mouse		
GLP-1 (7-37)-IP2-RR-GLP1(7-37) [CM1]				more than 20 fold	
HAEGTFTSDVSSYLEGQAAKEFIAWLVKGRGAADFPEEVAIAEELG [CM3-ANA01]				more than 20 fold	
HAEGTFTSDVSSYLEGQAAKEFIAWLVKGRGRRDFPEEVAIAEELG [CM3, GLP-1(7-37)-IP2]	46% ± 6% @1 h	21% ± 10% @4 h	0.25 μg/mouse	more than 20 fold	significant decrease

Reference: patent publication US20100256332A1, “GLP-1 Fusion Peptides, Their Production and Use” (BIOCOMPATIBLES UK LTD, priority 2007, published 2010)
